According to patent CN110862456A:
Results are given in words; binding and its absence hold for the method and conditions named. Some results given as binding are weak or reduced against the parent protein; the word gives no strength.

Chains of the proteins cited; added tags and fusions are not shown. Residues count along the entry.
UniProt P06731, residues 35-685: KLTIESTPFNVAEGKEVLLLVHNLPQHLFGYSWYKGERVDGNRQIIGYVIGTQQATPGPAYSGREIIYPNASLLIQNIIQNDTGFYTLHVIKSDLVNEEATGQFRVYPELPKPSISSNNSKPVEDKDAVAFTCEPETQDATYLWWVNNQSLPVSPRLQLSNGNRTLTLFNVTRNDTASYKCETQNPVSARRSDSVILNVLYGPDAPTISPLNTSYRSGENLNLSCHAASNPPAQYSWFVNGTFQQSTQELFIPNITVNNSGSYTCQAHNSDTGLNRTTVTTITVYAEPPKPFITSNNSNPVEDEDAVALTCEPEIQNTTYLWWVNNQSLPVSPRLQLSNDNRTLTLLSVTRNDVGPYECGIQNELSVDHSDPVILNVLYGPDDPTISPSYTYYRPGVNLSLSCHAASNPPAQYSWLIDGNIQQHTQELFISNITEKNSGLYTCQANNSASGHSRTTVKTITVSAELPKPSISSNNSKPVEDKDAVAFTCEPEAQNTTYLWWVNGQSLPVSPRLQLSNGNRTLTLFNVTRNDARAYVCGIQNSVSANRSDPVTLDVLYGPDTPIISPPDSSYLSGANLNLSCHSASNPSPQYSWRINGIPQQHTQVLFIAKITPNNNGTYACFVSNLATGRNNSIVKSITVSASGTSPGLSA

Target: CEA抗原 (carcinoembryonic antigen, coated in ELISA) (UniProt P06731)
Experiment: ELISA, coated antigen

binding: binds
B1: OLD-2ND-1-H3-scFv-mIgG1 (Fc fusion, not shown: a dimerising Fc or GST)
chain: EIVLTQSPGSLSSSPGERATLSCRASQSVANNFLAWYQQKAGQAPRLLIYGASSRATGIPDRFSGSGSGTDFTLTISRLEPEDFAVYFCQQYGISPLTFGPGTKVEIKGGGGSGGGGSGGGGSMAEVQLVESRGGLVQPGRSLRLSCAASGFTFDDYAMHWVRQAPGKGLEWVSAISGSGGSTYYADSVKGRFTISRDNSKNTLYLQMNSLRVEDTAVYYCAKGRYSSRWSASDIWGQGTMVTVSS
